This passage reports binding results from doi:10.1101/766808.

Test in all cases: affinity purification with mass spectrometry
Assay [1] has as its target T1, NMI (human (endogenous in HeLa)), Q13287.
T1 chain: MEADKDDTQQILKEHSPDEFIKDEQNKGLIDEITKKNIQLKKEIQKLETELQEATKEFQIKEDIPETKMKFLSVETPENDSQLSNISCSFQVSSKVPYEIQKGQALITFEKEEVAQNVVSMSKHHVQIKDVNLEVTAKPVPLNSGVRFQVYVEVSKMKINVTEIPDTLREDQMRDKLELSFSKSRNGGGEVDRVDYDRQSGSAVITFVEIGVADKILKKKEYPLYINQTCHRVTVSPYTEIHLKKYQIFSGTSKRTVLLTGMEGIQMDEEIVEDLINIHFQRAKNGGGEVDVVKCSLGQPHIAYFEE
The note with it: remark: other sources report otherwise.

Assay [2] has as its target T2, IFI35 (human (endogenous in HeLa)) (UniProt P80217).
T2 sequence: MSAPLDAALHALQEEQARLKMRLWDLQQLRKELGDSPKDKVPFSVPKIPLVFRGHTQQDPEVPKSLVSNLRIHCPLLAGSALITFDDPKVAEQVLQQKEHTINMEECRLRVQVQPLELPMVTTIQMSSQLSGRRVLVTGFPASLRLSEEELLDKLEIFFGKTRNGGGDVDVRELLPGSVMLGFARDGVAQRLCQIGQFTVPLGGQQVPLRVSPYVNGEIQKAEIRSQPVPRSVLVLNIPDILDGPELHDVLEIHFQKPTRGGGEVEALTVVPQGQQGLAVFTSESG

Assay [3] concerns the target T3, NMI (human (endogenous in HeLa)) (UniProt Q13287).
T3 sequence: T1 chain

Results are given in words; binding and its absence hold for the method and conditions named. In cells and extracts the contact can be indirect. These calls come from enrichment with a bait or labelling near it, and not all partners need be listed. For part of these data: A no says only that the protein was not detected with the bait.

B1: STAT1, P42224 1-750 (protein)
chain: MSQWYELQQLDSKFLEQVHQLYDDSFPMEIRQYLAQWLEKQDWEHAANDVSFATIRFHDLLSQLDDQYSRFSLENNFLLQHNIRKSKRNLQDNFQEDPIQMSMIIYSCLKEERKILENAQRFNQAQSGNIQSTVMLDKQKELDSKVRNVKDKVMCIEHEIKSLEDLQDEYDFKCKTLQNREHETNGVAKSDQKQEQLLLKKMYLMLDNKRKEVVHKIIELLNVTELTQNALINDELVEWKRRQQSACIGGPPNACLDQLQNWFTIVAESLQQVRQQLKKLEELEQKYTYEHDPITKNKQVLWDRTFSLFQQLIQSSFVVERQPCMPTHPQRPLVLKTGVQFTVKLRLLVKLQELNYNLKVKVLFDKDVNERNTVKGFRKFNILGTHTKVMNMEESTNGSLAAEFRHLQLKEQKNAGTRTNEGPLIVTEELHSLSFETQLCQPGLVIDLETTSLPVVVISNVSQLPSGWASILWYNMLVAEPRNLSFFLTPPCARWAQLSEVLSWQFSSVTKRGLNVDQLNMLGEKLLGPNASPDGLIPWTRFCKENINDKNFPFWLWIESILELIKKHLLPLWNDGCIMGFISKERERALLKDQQPGTFLLRFSESSREGAITFTWVERSQNGGEPDFHAVEPYTKKELSAVTFPDIIRNYKVMAAENIPENPLKYLYPNIDKDHAFGKYYSRPKEAPEPMELDGPKGTGYIKTELISVSEVHPSRLQTTDNLLPMSPEEFDEVSRIVGSVEFDSMMNTV
On to B1, for which the binding entry in assay [1] was “no binding”.

B2: NMI (protein, UniProt Q13287 1-307)
chain: T1 chain
As for B2, the binding entry in assay [2] is recorded as “binds”.

B3: IFI35 (protein, UniProt P80217 1-286)
chain: T2 sequence
As for B3, the binding result in assay [3] is reported as “binds”.
